The campaign covered roughly 360,000 compounds. About 9,100 (2.5%) were called active. Inconclusive results, whose numbers are uncertain, are shown with a selection of clear calls. Cut-off read from the data, not from the text of the source: active = max response below about -50%; inconclusive = no clear call, values can overlap the other calls; inactive = above that.
target: D(3) dopamine receptor (Homo sapiens) (UniProt P35462); assay: qHTS of D3 Dopamine Receptor Antagonist: qHTS; conditions: D3R cells, DiscoveRx beta-arrestin luminescence, antagonist mode; active compounds read low
How it was run: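 Cells plated overnight at 1500 cells/well, then exposed to library compounds with dopamine controls for 90 minutes at 37 degrees C. DiscoveRx reagent added for 30–60 minutes at room temperature; luminescence read, quantitative HTS format.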
% is set by controls: 0 for no effect and ±100 for the full control effect.

The chains behind the UniProt entries cited, without tags or fusion partners.
UniProt P35462, whole entry, looked up: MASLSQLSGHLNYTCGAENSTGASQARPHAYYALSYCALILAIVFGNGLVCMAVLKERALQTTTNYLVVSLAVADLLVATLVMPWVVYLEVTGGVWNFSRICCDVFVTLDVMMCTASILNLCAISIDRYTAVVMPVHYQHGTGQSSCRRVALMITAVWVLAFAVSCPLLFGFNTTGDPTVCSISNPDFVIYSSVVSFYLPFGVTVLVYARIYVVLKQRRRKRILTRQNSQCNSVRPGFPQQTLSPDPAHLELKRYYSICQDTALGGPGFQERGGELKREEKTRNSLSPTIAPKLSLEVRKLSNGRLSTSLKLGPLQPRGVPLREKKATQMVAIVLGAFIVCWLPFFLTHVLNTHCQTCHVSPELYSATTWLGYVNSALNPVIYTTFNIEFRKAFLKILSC

| SMILES | max response, negative = inhibition |
| --- | --- |
| Cc1ccc2c(CSc3nnc(C4CC4)n3N)cc(=O)oc2c1C | inconclusive: -31% |
| CC(=O)Nc1sc(C)c(C)c1C(=O)OCC(=O)Nc1cccc(C)c1 | inconclusive: -42.8% |
| N#Cc1cc2cc3c(cc2nc1N1CCOCC1)OCO3 | inactive: 23% |
| CC(=O)/C(C#N)=C1\NC(=O)C(Cc2ccccc2Cl)S1 (stereo not drawn) | inconclusive: -43.9% |
| Cc1ccc(S(=O)(=O)/C(C#N)=C/c2c(N3CC(C)OC(C)C3)nc3ccccn3c2=O)cc1 (stereo not drawn) | inconclusive: -31.1% |
| COc1ccccc1CN1CCN(C(c2ccccc2)c2ccccc2)CC1 | active: -95.1% |
| CC1=C/C(=N\OC(=O)/C=C/c2ccccc2)C(C)=CC1=O | inactive: 9.32% |
| CCN(CC)c1ccc2cc(-c3nc4ccccc4n3C)c(=O)oc2c1 | inactive: 9.87% |
| COc1ccc(CN2CNc3nc4ccccc4n3C2)cc1 | inconclusive: -49.8% |
| COc1cc(OC)c(S(=O)(=O)N2CCN(C(=O)c3ccco3)CC2)cc1NC(C)=O | inactive: 1.14% |
| Cc1nn(CCOc2ccccc2Cl)c(C)c1[N+](=O)[O-] | inconclusive: -33.3% |
| COc1ccc(OC)c(-c2cc(C(=O)NCCCn3ccnc3)no2)c1 | inconclusive: -47.6% |
| COCCNC(=O)C(c1ccccc1)N(CCOC)C(=O)Cn1nnc2ccccc21 (stereo not drawn) | inactive: 0% |
| Clc1ccc(Sc2cnc3ccccc3n2)cc1 | inconclusive: -35.2% |
| CC(C)(C)C(=O)Nc1cccc(-c2ncon2)c1 | inconclusive: -46.5% |
| Cc1ccc2c(c1)CCCN2C(=O)c1ccoc1C | inconclusive: -41% |
| O=C1C[C@@H](c2ccc(O[C@@H]3O[C@H](CO)[C@@H](O)[C@H](O)[C@H]3O)cc2)Oc2cc(O)ccc21 | inconclusive: -38.5% |
| CN(C)c1ccc2nc3c(=O)[nH]c(=O)nc-3n(CC(O)C(O)C(O)CO)c2c1 (stereo not drawn) | inconclusive: -49.3% |
| O=C(NCCN1CCOCC1)c1csc2c1CCCCC2 | active: -52.1% |
| Cc1cccc(C=CC(=O)c2ccc(Cl)cc2)c1 | inconclusive: -45.4% |

| SMILES | max response, negative = inhibition |
| --- | --- |
| CC(C)(O)C#Cc1ccc(N2C(c3ccsc3)=Cc3ccc(F)cc3C2c2c[nH]c3ccccc23)cc1 (stereo not drawn) | inactive: -5.52% |
| COc1ccccc1N1CCN(C(=O)CCCn2nc(C)c([N+](=O)[O-])c2C)CC1 | inactive: 24.3% |
| CCc1cccc(OCCCN2C(=O)NC(C)(C)C2=O)c1 | inconclusive: -33% |
| Cc1ccc(OCc2nc3ccccc3n2C(C)C(=O)Nc2c(C)cccc2C)cc1 (stereo not drawn) | inactive: 0.809% |
| O=C(Nc1ccc(Cl)cc1)OCCn1nnnc1C(c1ccccc1Cl)N1CCOCC1 (stereo not drawn) | inconclusive: -32.6% |
| COc1cc(C(CCN2CCOCC2)c2c(OC)cc(OC)c3c(C)cc(=O)oc23)cc(OC)c1OC (stereo not drawn) | inactive: -13.1% |
| COc1ccc(NS(=O)(=O)c2ccc(C(=O)N3CCC(C)CC3)cc2)cc1 | inactive: -4.85% |
| CC(C)CNC(=S)N1CCN(Cc2ccc3c(c2)OCO3)CC1 | inconclusive: -34.7% |
| OCC1(Cc2ccc(F)cc2)CCCN(CCCC(F)(F)F)C1 (stereo not drawn) | inactive: 0% |
| CN1CCN(C(=S)c2ccc(Cl)cc2)CC1 | active: -86.9% |
| COc1cccc(C2=NN(C(=O)c3cccs3)C(O)(C(F)(F)F)C2)c1 (stereo not drawn) | inactive: 10.6% |
| COC(=O)c1ccccc1NC(=O)CCC(=O)N1CCSc2ccccc21 | inactive: -10.3% |
| Cc1ccn2cc(C(=O)NC3CCN(Cc4ccccc4)CC3)nc2c1 | active: -65.2% |
| Cc1nc2c(o1)C(=O)c1ccccc1C2=Nc1ccccc1 | inconclusive: -38.3% |
| ON=C1c2cc(OCCN3CCCCC3)ccc2-c2ccc(OCCN3CCCCC3)cc21 | inconclusive: -30.1% |
| Cc1cc(C)n(CC(=O)c2ccc(Br)cc2)c(=O)c1C#N | inactive: 10.5% |
| O=C(/C=C/C=C/c1ccccc1)c1ccco1 | inconclusive: -38.9% |
| CC(=O)N1N=C(c2ccccc2O)CC1c1cccs1 (stereo not drawn) | inactive: -8.38% |
| Cc1ccc(C(C)C)cc1OCCCCN1CCCC1 | inconclusive: -33.9% |
| Cc1c(S(=O)(=O)N2CCN(c3cccc(C(F)(F)F)c3)CC2)c(=O)n(C)c(=O)n1C | inactive: -27.3% |

Rewritten tab-delimited: part of the list above
SMILES	max response, negative = inhibition
Clc1ccc(Sc2cnc3ccccc3n2)cc1	inconclusive: -35.2%
CC(C)(C)C(=O)Nc1cccc(-c2ncon2)c1	inconclusive: -46.5%
Cc1ccc2c(c1)CCCN2C(=O)c1ccoc1C	inconclusive: -41%
O=C1C[C@@H](c2ccc(O[C@@H]3O[C@H](CO)[C@@H](O)[C@H](O)[C@H]3O)cc2)Oc2cc(O)ccc21	inconclusive: -38.5%
CN(C)c1ccc2nc3c(=O)[nH]c(=O)nc-3n(CC(O)C(O)C(O)CO)c2c1 (stereo not drawn)	inconclusive: -49.3%
O=C(NCCN1CCOCC1)c1csc2c1CCCCC2	active: -52.1%
Cc1cccc(C=CC(=O)c2ccc(Cl)cc2)c1	inconclusive: -45.4%
CC(C)(O)C#Cc1ccc(N2C(c3ccsc3)=Cc3ccc(F)cc3C2c2c[nH]c3ccccc23)cc1 (stereo not drawn)	inactive: -5.52%
COc1ccccc1N1CCN(C(=O)CCCn2nc(C)c([N+](=O)[O-])c2C)CC1	inactive: 24.3%
CCc1cccc(OCCCN2C(=O)NC(C)(C)C2=O)c1	inconclusive: -33%
Cc1ccc(OCc2nc3ccccc3n2C(C)C(=O)Nc2c(C)cccc2C)cc1 (stereo not drawn)	inactive: 0.809%
O=C(Nc1ccc(Cl)cc1)OCCn1nnnc1C(c1ccccc1Cl)N1CCOCC1 (stereo not drawn)	inconclusive: -32.6%

The results go on.

| SMILES | max response, negative = inhibition |
| --- | --- |
| CC(=O)c1ccc(OCc2cc(C(=O)NC(C)c3cnn(C)c3)no2)cc1 (stereo not drawn) | inactive: 7.42% |
| COc1cccc(NC(=S)N(CCCN2CCOCC2)C(C)c2cc3ccccc3o2)c1 (stereo not drawn) | active: -54.6% |
| OC(COCc1ccccc1)CN1CCc2ccccc2C1 (stereo not drawn) | active: -64.9% |
| O=C(CN1C(=O)NC(Cc2c[nH]c3ccccc23)C1=O)NCC(F)(F)F (stereo not drawn) | inactive: 1.68% |
| S=c1nc(-c2cc(Cl)cc(Cl)c2)[nH][nH]1 | inconclusive: -32.5% |
| COc1ccccc1C(NC(=O)C1CCN(CCOc2ccccc2)CC1)c1ccccn1 (stereo not drawn) | active: -55.2% |
| CC(C)(C)c1ccccc1OCCCCN1CCCC1 | active: -68% |
| Cc1cc(=O)oc2cc(OC(C)C(=O)Nc3ccc(N4CCCCC4)cc3)ccc12 (stereo not drawn) | inactive: -7.69% |
| O=[N+]([O-])c1ccc(Sc2cc[n+]([O-])c3ccccc23)c([N+](=O)[O-])c1 | inconclusive: -33.7% |
| O=C(CN1C(=O)c2cccc([N+](=O)[O-])c2C1=O)N1CCc2ccccc2C1 | inactive: 14.6% |
| CSCCC(C(=O)Nc1c(C)cccc1C)n1c(-c2cc(C)cs2)nc2ccccc21 (stereo not drawn) | active: -65.7% |
| Cc1cc(C(F)(F)F)nc(CCNCc2c(C(=O)N3CCCC3)nc3ccccn23)n1 | inconclusive: -48.2% |
| COc1ccc(C2CC(c3ccccc3)n3nc(NC(=O)c4cccs4)nc3N2)cc1 (stereo not drawn) | inconclusive: -30.2% |
| C=CCNc1nc(Nc2ccc(OC)c(OC)c2)c2sc(-c3ccccc3)cc2n1 | inconclusive: -38.5% |
| COc1ccc(C(=O)C2CCCN(Cc3cc(Cl)ccc3O)C2)c(OC)c1 (stereo not drawn) | active: -54.4% |
| Cc1cc(Nc2ccccc2)c2c([N+](=O)[O-])cc(C)c(C)c2n1 | inactive: 27.4% |
| Cc1ccc(C(C)C)c(OCCCN2CC(C)OC(C)C2)c1 (stereo not drawn) | inconclusive: -44.4% |
| N#Cc1cc(-c2ccccc2)nc(NN)n1 | inconclusive: -31.6% |

Source: PubChem BioAssay AID652054 (National Center for Advancing Translational Sciences (NCATS), 2013)
